Where a chain is given by its changes, count along the chain named. Results are given in words; binding and its absence hold for the method and conditions named. In cells and extracts the contact can be indirect. Binding calls can cover weak binding; strength is not graded here. For some assays here: Sequences can lack the tags named with a protein.
Legend:
[1] = biological target: T1, FLAG-tagged WT-LKB1 (LKB1-WT-3FLAG; full-length murine LKB1 with a carboxy-terminal triple-FLAG tag) (mouse) (UniProt Q9WTK7); assay: co-IP; PAEC transiently overexpressing FLAG-tagged WT-LKB1, K64Q or K64R; anti-FLAG or anti-SIRT1; Western blotting
T1 sequence: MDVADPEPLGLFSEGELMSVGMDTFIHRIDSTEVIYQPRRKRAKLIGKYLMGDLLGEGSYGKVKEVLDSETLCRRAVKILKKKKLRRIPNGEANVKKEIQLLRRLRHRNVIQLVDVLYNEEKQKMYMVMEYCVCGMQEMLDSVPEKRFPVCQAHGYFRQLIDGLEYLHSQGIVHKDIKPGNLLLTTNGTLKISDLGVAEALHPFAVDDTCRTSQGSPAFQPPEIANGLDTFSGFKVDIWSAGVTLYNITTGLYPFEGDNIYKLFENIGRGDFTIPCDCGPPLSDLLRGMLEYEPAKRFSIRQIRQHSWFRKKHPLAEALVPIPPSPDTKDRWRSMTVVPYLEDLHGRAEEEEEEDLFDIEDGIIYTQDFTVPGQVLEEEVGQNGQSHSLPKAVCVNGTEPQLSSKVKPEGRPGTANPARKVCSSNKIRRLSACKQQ

[2] = biological target: T2, K64Q (LKB1-K64Q-3FLAG; murine LKB1 with lysine 64 replaced by glutamine, carboxy-terminal triple-FLAG tag) (mouse) (UniProt Q9WTK7); assay: as above
T2 sequence: T1 sequence with K64Q

[3] = biological target: T3, K64R (LKB1-K64R-3FLAG; murine LKB1 with lysine 64 replaced by arginine, carboxy-terminal triple-FLAG tag) (mouse) (UniProt Q9WTK7); assay: as above
T3 sequence: T1 sequence with K64R

[4] = biological target: T4, LKB1 (liver kinase B1; endogenous, porcine aortic endothelial cells) (pig (endogenous in PAEC)) (UniProt F1S6Q9); assay: co-IP; PAEC transfected with control or HERC2 RNAi, or with pcDNA or hSIRT1-3FLAG; antibodies against LKB1; HERC2 and SIRT1 detected by Western blotting
T4 sequence: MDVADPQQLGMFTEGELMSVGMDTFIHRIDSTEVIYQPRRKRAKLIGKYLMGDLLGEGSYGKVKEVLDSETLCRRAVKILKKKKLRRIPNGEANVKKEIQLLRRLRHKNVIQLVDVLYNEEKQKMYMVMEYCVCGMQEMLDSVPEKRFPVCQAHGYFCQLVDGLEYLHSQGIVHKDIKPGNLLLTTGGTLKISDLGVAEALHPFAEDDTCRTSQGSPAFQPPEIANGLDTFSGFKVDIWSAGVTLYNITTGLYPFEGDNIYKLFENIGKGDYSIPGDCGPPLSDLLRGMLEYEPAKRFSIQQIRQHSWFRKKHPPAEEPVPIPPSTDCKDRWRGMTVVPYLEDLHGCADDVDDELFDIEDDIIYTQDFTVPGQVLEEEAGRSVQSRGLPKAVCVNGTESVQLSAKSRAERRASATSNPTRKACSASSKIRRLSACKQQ

[5] = biological target: T4, LKB1 (liver kinase B1; endogenous, porcine aortic endothelial cells) (pig (endogenous in PAEC)); assay: co-IP; total cell lysates or subcellular (cytosol and nuclear) fractions of PAEC treated with MG132 (10 μM, six hours); antibodies against LKB1 or SIRT1; Western blotting

Measured: binding

SIRT1 (endogenous, porcine aortic endothelial cells) (pig (endogenous in PAEC))
binds: all assays above

From PMC5129914
